Test results published in article PMC7498313.

The chains behind the UniProt entries cited, without tags or fusion partners. Residues count along the entry.
UniProt F0NHH1, whole entry K16A: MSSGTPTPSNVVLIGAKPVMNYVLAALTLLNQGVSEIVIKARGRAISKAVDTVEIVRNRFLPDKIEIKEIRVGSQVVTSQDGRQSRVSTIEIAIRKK
UniProt F0NHH1, whole entry K16N/R44I: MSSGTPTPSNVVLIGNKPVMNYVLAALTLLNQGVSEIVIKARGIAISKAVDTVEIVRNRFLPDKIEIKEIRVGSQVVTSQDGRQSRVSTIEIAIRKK
UniProt F0NHH1, whole entry K16N/R44I/R83T: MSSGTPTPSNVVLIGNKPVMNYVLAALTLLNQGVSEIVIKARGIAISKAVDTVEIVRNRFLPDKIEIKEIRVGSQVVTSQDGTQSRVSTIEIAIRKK
UniProt F0NHH1, whole entry K16N/R83T: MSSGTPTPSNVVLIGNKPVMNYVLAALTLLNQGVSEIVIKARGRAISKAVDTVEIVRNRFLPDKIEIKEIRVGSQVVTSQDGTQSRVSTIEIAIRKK
UniProt F0NHH1, whole entry K17A: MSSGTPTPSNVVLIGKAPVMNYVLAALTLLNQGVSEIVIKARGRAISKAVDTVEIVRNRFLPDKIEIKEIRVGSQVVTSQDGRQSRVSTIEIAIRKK
UniProt F0NHH1, whole entry R44I/R83T: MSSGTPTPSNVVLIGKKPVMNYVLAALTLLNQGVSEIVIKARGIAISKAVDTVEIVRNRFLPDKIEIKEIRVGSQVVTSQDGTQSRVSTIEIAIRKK
UniProt F0NHH1, whole entry K17R: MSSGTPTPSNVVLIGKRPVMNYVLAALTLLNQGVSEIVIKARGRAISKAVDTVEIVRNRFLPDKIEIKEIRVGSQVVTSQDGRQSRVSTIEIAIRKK
UniProt F0NHH1, whole entry M20E/L24E/L27E/F60E: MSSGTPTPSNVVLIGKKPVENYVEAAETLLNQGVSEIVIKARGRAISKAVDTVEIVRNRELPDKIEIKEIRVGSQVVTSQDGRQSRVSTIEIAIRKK
UniProt F0NHH1, 13-97, stated change not applied: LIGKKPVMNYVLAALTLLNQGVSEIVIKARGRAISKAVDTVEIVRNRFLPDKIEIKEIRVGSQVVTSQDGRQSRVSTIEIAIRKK

Tests used:
Assay in all cases: EMSA
[1] = biological target: Sis10b K16A (Sulfolobus islandicus REY15A) (UniProt F0NHH1); details: 55°C, EMSA: 20 mM HEPES-NaOH pH 7.0, 1 mM DTT, 100 ug/ml BSA, 6% glycerol, 30 min at 25, 37 or 55°C, gel in 0.5x TBE at the same temperature, recombinant protein
[2] = biological target: Sis10b K16N/R44I (Sulfolobus islandicus REY15A) (UniProt F0NHH1); details: EMSA: 20 mM HEPES-NaOH pH 7.0, 1 mM DTT, 100 ug/ml BSA, 6% glycerol, 30 min at 25, 37 or 55°C, gel in 0.5x TBE at the same temperature, recombinant protein
[3] = biological target: Sis10b K16N/R44I/R83T (Sulfolobus islandicus REY15A) (UniProt F0NHH1); details: 55°C, hardly able to bind even at 10 uM; EMSA: 20 mM HEPES-NaOH pH 7.0, 1 mM DTT, 100 ug/ml BSA, 6% glycerol, 30 min at 25, 37 or 55°C; gel in 0.5x TBE at the same temperature; recombinant protein; label: 5' 32P on top strand
[4] = biological target: Sis10b K16N/R83T (Sulfolobus islandicus REY15A) (UniProt F0NHH1); details: EMSA: 20 mM HEPES-NaOH pH 7.0, 1 mM DTT, 100 ug/ml BSA, 6% glycerol, 30 min at 25, 37 or 55°C, gel in 0.5x TBE at the same temperature, recombinant protein
[5] = biological target: Sis10b K17A (Sulfolobus islandicus REY15A) (UniProt F0NHH1); details: 55°C; EMSA: 20 mM HEPES-NaOH pH 7.0, 1 mM DTT, 100 ug/ml BSA, 6% glycerol, 30 min at 25, 37 or 55°C; gel in 0.5x TBE at the same temperature; recombinant protein; label: 5' 32P on top strand
[6] = biological target: Sis10b R44I/R83T (Sulfolobus islandicus REY15A) (UniProt F0NHH1); details: EMSA: 20 mM HEPES-NaOH pH 7.0, 1 mM DTT, 100 ug/ml BSA, 6% glycerol, 30 min at 25, 37 or 55°C, gel in 0.5x TBE at the same temperature, recombinant protein
[7] = biological target: Sis10b K17R (Sulfolobus islandicus REY15A) (UniProt F0NHH1); details: EMSA: 20 mM HEPES-NaOH pH 7.0, 1 mM DTT, 100 ug/ml BSA, 6% glycerol, 30 min at 25, 37 or 55°C, gel in 0.5x TBE at the same temperature, recombinant protein
[8] = biological target: Sis10b M20E/L24E/L27E/F60E (Sulfolobus islandicus REY15A) (UniProt F0NHH1); details: 55°C; EMSA: 20 mM HEPES-NaOH pH 7.0, 1 mM DTT, 100 ug/ml BSA, 6% glycerol, 30 min at 25, 37 or 55°C; gel in 0.5x TBE at the same temperature; recombinant protein; label: 5' 32P
[9] = biological target: Sis10b ΔN12 del1-12 (Sulfolobus islandicus REY15A) (UniProt F0NHH1); details: 55°C; EMSA: 20 mM HEPES-NaOH pH 7.0, 1 mM DTT, 100 ug/ml BSA, 6% glycerol, 30 min at 25, 37 or 55°C; gel in 0.5x TBE at the same temperature; recombinant protein; residues 13-97; label: 5' 32P
[10] = 55°C, range given for the three double mutants, label: 5' 32P on top strand
[11] = 25°C, label: 5' 32P on top strand

UGACUUCCGCGCGUGAGCUCGAUUCCACAUACCCUAAAUCGCUC / GAGCGAUUUAGGGUAUGUGGAAUCGAGCUCACGCGCGGAAGUCA [44-bp dsRNA]
Kd ([1]; label: 5' 32P on top strand): 59.3 nM | binding result [2, 10]: binds more weakly | Kd [3]: > 10000 nM | binding result [4, 10]: binds more weakly | Kd [5]: 47.3 nM | binding result [6, 10]: binds more weakly

GGUAAGAGCACCCGACUGCUCUUCC / GGAAGAGCAGUCGGGUGCUCUUACC [25-bp dsRNA]
binding result [2, 11]: binds more weakly | binding result [4, 11]: binds more weakly | binding result [7, 11]: binds | binding result [6, 11]: binds more weakly

UGACUUCCGCGCGUGAGCUCGAUUCCACAUACCCUAAAUCGCUC [44-nt ssRNA (t)]
binding result ([1]; label: 5' 32P): binds | binding result ([2]; 55°C, label: 5' 32P): binds more weakly | binding result ([4]; 55°C, label: 5' 32P): binds more weakly | binding result ([7]; 55°C, label: 5' 32P): binds | binding result [8]: binds | binding result ([6]; 55°C, label: 5' 32P): binds more weakly | binding result [9]: binds

For at least one entry, the source does not settle the construct or the ends of the probe. For some assays here: A weaker result is weaker than the reference pair of the same experiment. For some assays here: At least one verdict rests on a figure or table, not on a statement of the authors.
